These results are taken from the supplement of paper PMC11409438.

Assay [1] relates to Caenorhabditis elegans ST65 (ncIs13[ajm-1::GFP]). The assay is described as follows: 'Larvae/adult' ratio (MetaXpress pharynx counts; minimum value 1, so it appears to include adults; growth inhibition read-out). The note with it: 10 µM; exposure time: 4-5 days from L1 at 20°C.
Assay [2] shares this test system. The assay is described as follows: vulvae per adult worm (MAPK/ERK-dependent vulval induction, MetaXpress) (vulvae/adult); higher = more vulval induction (less MAPK/ERK inhibition). The note with it: 10 µM; exposure time: 4-5 days from L1 at 20°C.

Some of the results follow. Many values rest on one well or one pass, so single values are uncertain.

Turning to `CS(=O)(=O)CCNCc1ccc(-c2ccc3ncnc(Nc4ccc(OCc5cccc(F)c5)c(Cl)c4)c3c2)o1` [Lapatinib], in assay [1], the “'Larvae/adult' ratio” value was 3.2. Moreover, the “vulvae per adult worm” value in assay [2] was found to be 1.2.
For `COc1cc(Nc2ncc(F)c(Nc3ccc4c(n3)N(COP(=O)(O)O)C(=O)C(C)(C)O4)n2)cc(OC)c1OC` [Fostamatinib (R788)], in assay [1], the “'Larvae/adult' ratio” value worked out at 2.45. The “vulvae per adult worm” value in assay [2] worked out at 1.34.
For the compound `Cc1nc(C(=O)NCC(=O)O)c(O)c2ccc(Oc3ccccc3)cc12` [Roxadustat (FG-4592)], the “'Larvae/adult' ratio” value in assay [1] was 2.22. The “vulvae per adult worm” value in assay [2] was 0.972.
On to `FC(F)c1nc2ccccc2n1-c1nc(N2CCOCC2)nc(N2CCOCC2)n1`, for which the “'Larvae/adult' ratio” value in assay [1] worked out at 2.13. Also, the “vulvae per adult worm” value in assay [2] is 0.957.
`COc1ccc(COc2cc3oc(=O)c4cc(C(C)O)ccc4c3cc2OC)cc1` (stereo not drawn) [Palomid 529 (P529)]: the “'Larvae/adult' ratio” value in assay [1] is 1.79. In addition, the “vulvae per adult worm” value in assay [2] amounted to 0.846.
Consider `CC(C)(C)NC(=O)[C@H]1CC[C@H]2[C@@H]3CC[C@H]4NC(=O)C=C[C@]4(C)[C@H]3CC[C@]12C` [Finasteride], for which, in assay [1], the “'Larvae/adult' ratio” value was determined as 2.3. For the same compound, the “vulvae per adult worm” value in assay [2] was 1.05.
On to `CNS(=O)(=O)Nc1nccc(Cc2c(C)c3ccc(Oc4ncccn4)cc3oc2=O)c1F`, for which the “'Larvae/adult' ratio” value in assay [1] worked out at 1.36. The “vulvae per adult worm” value in assay [2] is 0.
Turning to `Cc1ccc(Nc2nccc(N(C)c3ccc4c(C)n(C)nc4c3)n2)cc1S(N)(=O)=O` [Pazopanib], the “'Larvae/adult' ratio” value in assay [1] worked out at 3.67. Further, in assay [2], the “vulvae per adult worm” value is 0.667.
Turning to `O=C(NOCCO)c1ccc2cncn2c1Nc1ccc(I)cc1F`, the “'Larvae/adult' ratio” value in assay [1] amounted to 1.79. For the same compound, the “vulvae per adult worm” value in assay [2] worked out at 0.158.
As for `Nc1nc(Cl)nc2c1ncn2[C@@H]1O[C@H](CO)[C@@H](O)[C@@H]1F` [Clofarabine], the “'Larvae/adult' ratio” value in assay [1] was 3.5. Besides, the “vulvae per adult worm” value in assay [2] came to 1.38.
On to `CN1CC[C@@H](NC(=O)Nc2ccc(C#N)cc2)C[C@@H]1c1nc2ccccc2[nH]1`, for which the “'Larvae/adult' ratio” value in assay [1] was determined as 1.7. For the same compound, in assay [2], the “vulvae per adult worm” value was found to be 0.913.
With `N#Cc1ccc(COC[C@H]2O[C@@H](n3c(NCc4ccc(Cl)c(Cl)c4)nc4c(N)ncnc43)[C@H](O)[C@@H]2O)cc1`, in assay [1], the “'Larvae/adult' ratio” value worked out at 2.52. The “vulvae per adult worm” value in assay [2] amounted to 1.09.
On the same counts, the results for `CC(C)(C#N)c1cc(Cn2cncn2)cc(C(C)(C)C#N)c1` [Anastrozole] are 1.56 and 0.969.
On the same counts, the results for `COc1ccc(Cn2ccc3ccc(C(=O)NO)cc32)cc1` are 2.7 and 0.9.
On to `CS(=O)(=O)N1CCN(Cc2cc3nc(-c4cccc5[nH]ncc45)nc(N4CCOCC4)c3s2)CC1` [Pictilisib (GDC-0941)], for which the “'Larvae/adult' ratio” value in assay [1] was found to be 1.83. Besides, the “vulvae per adult worm” value in assay [2] amounted to 0.979.
Regarding `CN(Cc1cnc2nc(N)nc(N)c2n1)c1ccc(C(=O)N[C@@H](CCC(=O)O)C(=O)O)cc1` [Methotrexate], the “'Larvae/adult' ratio” value in assay [1] was determined as 1.71. Besides, the “vulvae per adult worm” value in assay [2] was determined as 0.794.
On the same counts, the results for `CC(C)(C)c1cnc(CSc2cnc(NC(=O)C3CCNCC3)s2)o1` are 1.71 and 0.714.
On the same counts, the results for `CS(=O)(=O)c1ccc(-c2cnc(N)c(C(=O)Nc3ccccc3)n2)cc1` are 2.37 and 0.788.
Taken in the same sequence, the figures for `Cc1ccc(C(=O)Nc2ccc(Oc3cc4cnn(C)c4cc3-c3cn[nH]c3)c(F)c2)c(=O)n1-c1ccc(F)cc1` were 3.06 and 0.806.
With `CCc1cncnc1N1CCN(Cc2nc3ccc(C(F)(F)F)cc3[nH]2)CC1`, the “'Larvae/adult' ratio” value in assay [1] was 4.17. For the same compound, the “vulvae per adult worm” value in assay [2] came out at 0.167.
With `COC[C@H](NC(=O)c1cnc(C)s1)C(=O)N[C@@H](COC)C(=O)N[C@@H](Cc1ccccc1)C(=O)[C@@]1(C)CO1` [Oprozomib (ONX 0912)], in assay [1], the “'Larvae/adult' ratio” value came out at 2.69. Besides, the “vulvae per adult worm” value in assay [2] turned out to be 0.914.
As to `CCCCCOC(=O)Nc1nc(=O)n([C@@H]2O[C@H](C)[C@@H](O)[C@H]2O)cc1F` [Capecitabine], the “'Larvae/adult' ratio” value in assay [1] was determined as 1.73. Moreover, the “vulvae per adult worm” value in assay [2] was 1.
With `CCS(=O)(=O)N1CCN(c2ccc(Nc3ncc(C(N)=O)c(NC4CC4)n3)cc2)CC1`, in assay [1], the “'Larvae/adult' ratio” value was 4.5. The “vulvae per adult worm” value in assay [2] stood at 1.38.
For `CCOc1cc2ncc(C#N)c(Nc3ccc(OCc4ccccn4)c(Cl)c3)c2cc1NC(=O)/C=C/CN(C)C` [Neratinib (HKI-272)], the “'Larvae/adult' ratio” value in assay [1] came out at 1.91. The “vulvae per adult worm” value in assay [2] is 1.06.
On the same counts, the results for `CNC(=O)CN1CCC(Oc2cc3c(Nc4cccc(Cl)c4F)ncnc3cc2OC)CC1` [Sapitinib (AZD8931)] are 1.7 and 0.919.
For the compound `Cc1nc(NC(=O)N2CCC[C@H]2C(N)=O)sc1-c1ccnc(C(C)(C)C(F)(F)F)c1` [Alpelisib (BYL719)], the “'Larvae/adult' ratio” value in assay [1] stood at 1.8. Also, the “vulvae per adult worm” value in assay [2] amounted to 1.
`COc1c(C)cnc(Cn2cnc3c(Cl)nc(N)nc32)c1C`: the “'Larvae/adult' ratio” value in assay [1] amounted to 1.77. For the same compound, the “vulvae per adult worm” value in assay [2] amounted to 0.614.
On the same counts, the results for `CCN1CCN(Cc2ccc(Nc3ncc(F)c(-c4cc(F)c5nc(C)n(C(C)C)c5c4)n3)nc2)CC1` [Abemaciclib] are 1.68 and 0.86.
As to `Cc1ccc(NC(=O)c2ccc(CN3CCN(C)CC3)cc2)cc1Nc1nccc(-c2cccnc2)n1` [Imatinib (STI571)], in assay [1], the “'Larvae/adult' ratio” value amounted to 1.65. For the same compound, the “vulvae per adult worm” value in assay [2] came out at 0.725.
